The results in this text go back to publication PMC9332313, “Folding and Binding Mechanisms of the SH2 Domain from Crkl” (Biomolecules, 2022).

The chains behind the UniProt entries cited, without tags or fusion partners. Residues count along the entry.
UniProt P46109, residues 1-111: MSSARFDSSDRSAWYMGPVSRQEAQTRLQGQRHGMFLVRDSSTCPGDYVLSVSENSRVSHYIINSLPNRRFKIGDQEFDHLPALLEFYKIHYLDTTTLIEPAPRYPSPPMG

Results are given in words; binding and its absence hold for the method and conditions named. Some results given as binding are weak or reduced against the parent protein; the word gives no strength.

This assay concerns the target T1, dansylated Pax_(112–123) peptide (Dans-GEEEHV-pY-SFPNK).
T1 sequence (peptide, phosphotyrosine (pY, seventh residue of the peptide); dansyl on the N-terminus): GEEEHVYSFPNK
Put plainly: stopped-flow fluorescence kinetics (FRET); ionic strength dependence: dansyl-Pax112-123 constant at 2 μM mixed with Crkl-SH2 2 to 10 μM; koff by displacement of the preincubated 2 µM complex with non-dansylated Pax112-123 (30 μM); 283 K; 50 mM sodium-HEPES pH 7.5 with 150 mM, 300 mM, 500 mM or 1 M NaCl; both purified.

As to “SH2 domain of Crkl protein (residues 1-111), wild type (from UniProt P46109 1-111) (domain or fragment)”, the binding result is recorded as “binds”.
